In the supplement of paper PMC3334620:
Whole data set: some 33,000 sequences, median “E-score (-0.5 to 0.5)” near -8e-05, cut for the highest 2% near 0.23. The list shows a part of the results.

molecular target: T1, Nrg2 (UniProt P38082); test: PBM E-score (8-mer binding enrichment) (E-score (-0.5 to 0.5)); higher = stronger / more preferred TF binding; settings: protein concentration: 100 nM; construct: GST-full length
T1 sequence: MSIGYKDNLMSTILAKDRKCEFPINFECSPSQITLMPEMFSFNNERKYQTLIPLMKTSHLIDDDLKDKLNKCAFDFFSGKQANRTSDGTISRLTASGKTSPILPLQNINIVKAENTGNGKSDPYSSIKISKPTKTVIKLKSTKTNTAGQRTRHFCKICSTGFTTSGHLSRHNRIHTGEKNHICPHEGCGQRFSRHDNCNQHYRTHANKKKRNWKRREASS
Outline: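 Universal all-10-mer Agilent arrays, double-stranded by primer extension on fresh or once-stripped slides, were probed with about 100-200 nM GST-tagged yeast transcription factors made by PURExpress. Fluorescent anti-GST detected bound protein, and masliner normalised the scans. E-scores from the Universal PBM Analysis Suite were given to each ungapped eight-base word pooled with its reverse complement.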

| Sequence | PBM E-score |
| --- | --- |
| GGAGATAC | 0.0795 |
| ATCTTGAG | -0.00416 |
| CAGGGCGA | 0.0867 |
| GGGACGAA | 0.0439 |
| AACGCATT | 0.0262 |
| CCCCTCCC | -0.102 |
| TAAAAGTA | -0.0146 |
| AATCAAGA | 0.087 |
| ATGGCCCA | -0.0568 |
| GATTTCAA | 0.0258 |
| TGATAAAA | 0.101 |
| ATGATTAG | 0.142 |
| AGCCACCT | -0.109 |
| GGCTACCA | -0.214 |
| ATAGGACG | -0.0185 |
| CGTTACGA | 0.0925 |
| GCATGCGA | 0.226 |
| GCCGTGAC | -0.00204 |
| GGTTCTGA | 0.107 |
| GGACTTCA | -0.0141 |
| CGTAGCAG | -0.0289 |
| ACTTGGCA | -0.232 |
| GTTCTCAA | 0.193 |
| AGCCTATG | -0.269 |
| GATGGACC | 0.148 |

| Sequence | PBM E-score |
| --- | --- |
| CGACGCAC | -0.0196 |
| ACTTCGCG | 0.144 |
| ACTACAAG | -0.119 |
| AATACTCG | 0.126 |
| CTACAAGA | -0.0397 |
| CGTCTGTC | 0.062 |
| CGCGCACG | -0.0646 |
| GACATGAA | 0.0283 |
| CGCTTTCA | 0.136 |
| CTCTAACC | -0.189 |
| CAGCTCCG | 0.0111 |
| CTTCTAAC | -0.256 |
| TAAGCCTA | -0.0394 |
| AACTATAA | 0.0489 |
| CATGTAGC | 0.067 |
| TCTTTGCA | -0.00335 |
| AAGCGTGC | -0.0719 |
| GCATACGA | 0.0243 |
| ATGACCCG | -0.158 |
| CCGCAGAA | 0.245 |
| CGTTTTCC | -0.0105 |
| CTCAGGTC | 0.0301 |
| CATGACCC | 0.0364 |
| CACTTGCC | -0.0455 |
| GCCACCAC | -0.12 |

| Sequence | PBM E-score |
| --- | --- |
| CTCAACCC | 0.00526 |
| ATTTATGG | 0.0435 |
| GGAACAGA | -0.00079 |
| CTGCCTAA | -0.0806 |
| GGCGATGA | -0.0321 |
| CGGCCAGC | -0.00057 |
| AGCCCGAG | -0.154 |
| AGAGCTCT | -0.0952 |
| CCAAGCCG | -0.0871 |
| ACCAGCAC | -0.0518 |
| CGAACTTA | 0.0832 |
| CGACGTGC | 0.0858 |
| ATCGTCTA | -0.143 |
| CCTCGAAA | 0.0849 |
| AAGGAGTA | -0.0119 |
| AATTGTCG | 0.207 |
| TATGGCCA | 0.103 |
| CTTAACTC | 0.0351 |
| AGTCGACA | 0.194 |
| ATCCGCGA | 0.0232 |
| AAGGTATA | -0.0404 |
| TAAGCGCA | -0.169 |
| ACCAATGG | -0.0348 |
| CCCCAGAA | -0.0495 |
| CACCCACC | 0.0416 |

| Sequence | PBM E-score |
| --- | --- |
| ACAGTCAC | -0.137 |
| CCCAGAGC | -0.234 |
| GGCATACA | 0.0592 |
| TAAGTTGA | -0.00176 |
| CAGGCGTA | 0.00424 |
| ACTTCCCT | 0.137 |
| GAGTGCCC | -0.0655 |
| GGTTCACA | 0.103 |
| AACAAGTT | -0.0278 |
| AGTGCAGA | -0.0644 |
| AGTACAGC | -0.00081 |
| AAAACCGC | -0.0198 |
| AGGTCGTA | -0.0728 |
| ACTCCTCA | -0.24 |
| ATACAATC | -0.0431 |
| AAACTCCA | -0.0585 |
| ACGACTAG | -0.00103 |
| CGCCCGCC | 0.085 |
| CATGGCGC | 0.0143 |
| CACGACGC | -0.00663 |
| ACGGGGCG | 0.173 |
| CGCATCCG | 0.0205 |
| ATCCATTA | 0.0714 |
| AGATTTGC | 0.167 |
| ATACATCG | 0.0815 |

A second format for some results above.
Sequence,PBM E-score
ACGACTAG,-0.00103
CGCCCGCC,0.085
CATGGCGC,0.0143

Some of the entries above, set out differently.
Sequence	PBM E-score
GGCATACA	0.0592
TAAGTTGA	-0.00176
ACTTCCCT	0.137
AGTGCAGA	-0.0644
ATCCATTA	0.0714

(further entries)

| Sequence | PBM E-score |
| --- | --- |
| AACGCATG | 0.0235 |
| ATCGCCAA | -0.0232 |
| GGGTCGCA | -0.07 |
| ACCATGCG | -0.051 |
| ATGTCCTC | 0.0325 |
| CATTGGTA | 0.0651 |
| GCTCTTGA | -0.00498 |
| CGCCTATC | 0.0245 |
| CGTGTGGC | -0.0389 |
| ACTACCAG | -0.136 |
| AGTCATGG | -0.0826 |
| CTCACACC | -0.204 |
| AGAGAATG | 0.0251 |
| AATAAAGT | 0.252 |
| GCTATGCC | -0.189 |
| CCCTGCTA | 0.0162 |
| TCTATCAA | 0.0406 |
| TGATTACA | 0.0322 |
| AGCTACTG | 0.0202 |
| TAACGCCA | -0.0901 |
| ATGCCTAG | -0.0724 |
| CAACCTCC | -0.184 |
| ATCAAGAA | 0.0761 |
| AGTATCCA | 0.0505 |
| ACCCCTAT | 0.256 |

| Sequence | PBM E-score |
| --- | --- |
| AAGATGAA | 0.149 |
| CGACCTGC | -0.0924 |
| GTCAACGA | 0.0389 |
| CGATGTGC | 0.018 |
| CAGTGTGA | 0.108 |
| ACTCCCAC | -0.00873 |
| GATGGCCA | 0.0154 |
| TGATACAA | 0.112 |
| GTGCGTTA | 0.0327 |
| ACCATTCT | -0.0116 |
| GACAGGAA | 0.103 |
| CACCCTGA | 0.201 |
| CTGCGCAA | 0.142 |
| CGATCCGA | 0.117 |
| CACCCTCC | -0.112 |
| CAAAACAC | 0.0285 |
| TAACTACA | 0.0268 |
| ACGTAGAG | -0.195 |
| CTGTATGA | -0.113 |
| AACGAGCT | 0.0638 |
| AAACCTTC | -0.153 |
| CCTCAGCG | -0.0567 |
| GATTGTTA | 0.116 |
| CCAGTAGC | -0.0699 |
| CCCGACTC | -0.0653 |

| Sequence | PBM E-score |
| --- | --- |
| ATGAACTG | 0.173 |
| AGTGGAAG | -0.194 |
| CAGACATG | 0.00828 |
| AGCTACCC | -0.0919 |
| ATTATGCC | 0.115 |
| ACAACCGA | 0.136 |
| CGACCGTC | -0.108 |
| AGCGCGCG | 0.274 |
| AATTCACT | 0.0634 |
| ATCCTCAC | 0.0624 |
| ATTGAAGA | -0.0095 |
| ACAGTCCT | -0.185 |
| AAACCTCG | -0.0755 |
| AGTGAGAA | 0.155 |
| AGTACCAT | -0.167 |
| GCTCGCTA | -0.0335 |
| ATAGGAGG | -0.285 |
| TGGAATAA | 0.00839 |
| ACCACACT | -0.0284 |
| TTACCCAA | -0.0831 |
| CGGTATCC | -0.0279 |
| ATAAATAT | 0.245 |
| CTGAGGGC | -0.146 |
| ATAATTGA | 0.276 |
| GACGAAGA | 0.0138 |

| Sequence | PBM E-score |
| --- | --- |
| TAGCTTGA | -0.168 |
| TAGTGCGA | 0.0178 |
| CCCTCGCG | 0.136 |
| CGTGTAAC | -0.148 |
| ATCCCTCC | -0.147 |
| TCGCACCA | 0.0204 |
| CGCACGGA | 0.0769 |
| GAGATTAC | 0.0388 |
| CTACACCC | 0.0683 |
| CGGTCGCC | -0.0266 |
| GCGGCCAC | -0.0725 |
| CTAGTTTC | 0.17 |
| TCCCCGGA | 0.0204 |
| GAACCGCC | -0.146 |
| CAGGGGAA | 0.106 |
| CGTTCGCC | -0.0911 |
| CGTAAGGC | -0.16 |
| ACAGTGCC | 0.0305 |
| ACCTCGGC | 0.202 |
| GACTTAGC | -0.119 |
| ACTTGTAG | -0.204 |
| TCCTCGAA | 0.176 |
| GAAAATTC | 0.1 |
| ATCCGCAC | 0.029 |
| ATCTTGCC | 0.195 |

| Sequence | PBM E-score |
| --- | --- |
| CCATAAAG | -0.0889 |
| AGACGCAT | -0.0244 |
| GGATACAC | -0.0641 |
| CACAATCA | -0.0524 |
| ACTGACTG | -0.0997 |
| TAATACTA | 0.202 |
| AACGGACA | 0.0563 |
| AGGCGTAC | -0.22 |
| ACGGAGCC | -0.28 |
| CCTAATGC | -0.177 |
| ATCTAAAA | -0.0295 |
| CTGATAAC | 0.0011 |
| CGCACTCC | -0.129 |
| AATTTTTC | -0.0131 |
| ACCCGAAT | 0.1 |
| AGATTGAT | -0.17 |
| AAGACGTG | -0.0832 |
| GCATAGTA | 0.23 |
| CATGTTGA | 0.258 |
